Test results: patent US8030446B2, “Mutant proline-and-arginine rich peptides and methods for using the same” (Trustees of Dartmouth College, priority 2006, dated 2011)
At least one peptide structure holds a part that was inferred or is arguable (an end, a ring closure or a residue). Marks after values point to notes of the source that are not given here. Some of these results come from one statement about several compounds together. Some compounds share one range, which may span the group rather than tell each member. Ends that are not written are not given here.

Test system: genes regulating the NF-κB pathway in human umbilical vein endothelial cells (HUVEC)
Experiment: NF-κB pathway-specific gene expression microarray in HUVEC treated with PR peptides
Format: cell-based
Conditions: for overall inhibitory effect on NF-κB pathway-related gene expression (in words): FIG. 1, averaged % inhibition over 13 down-regulated genes, relative to PR11; for AKT1 gene expression / ATF2 gene expression / CREB1 gene expression / ELK3 gene expression / JNK1 gene expression / MEK4 gene expression / MEKK1 gene expression / MEKK2 gene expression / NF-κB1 gene expression / NF-κB2 gene expression / P38 MAPK gene expression / RANK gene expression / RIP gene expression / TAK1 gene expression / TBK1 gene expression / TRAF6 gene expression: PR peptides 1 μM, 8 hours, relative to untreated controls; for number of significantly reduced genes: of the 13 down-regulated genes of Tables 5 and 6
Procedure: Cell Culture. Human umbilical vein endothelial cells (HUVEC, Cambrex Bio Science Walkersville, Inc., East Rutherford, N.J.) were cultured in endothelial cell basal medium-2 supplemented with EGM-2 SINGLEQUOTS (Cambrex Bio Science Walkersville, Inc.) and FBS. Confluent HUVEC, passage 3-5, were starved overnight in medium supplemented with 0.5% FBS, 0.25% BSA and incubated with PR peptides (1 μM) for 8 hours in starvation medium.
Total RNA Extraction and Gene Profiling by Microarray. Total RNA extraction was performed using the RNEASY mini kit protocol (QIAGEN, Valencia, Calif.). The quality and quantity of total RNA was determined using RNA 6000 Nano chips (Agilent Technology, Santa Clara, Calif.).
Gene profiling was performed using pathway-specific gene expression array for NF-κB signaling transduction (HS-016.2, SuperArray Bioscience Corp.). A total of 96 cDNA fragments from genes related to NF-κB mediated signal transduction, including: NF-κB/IκB family, NF-κB responsive genes (adhesion molecules, cytokines), extracellular ligands, transmembrane receptors, adaptor proteins, signal transduction kinases, and transcription factors were printed in tetraspot format on 3.8×4.8 cm nylon array membrane. Total RNA (0.5 μg) was reverse-transcribed into cDNA labeled with biotin-dUTP according to the manufacture's protocol. After overnight hybridization at 60° C., array membranes were treated with alkaline phosphate-conjugated streptavidin followed by chemiluminescent alkaline phosphate substrate CDP-star (Applied Biosystems, Foster City, Calif.) and exposed to X-ray film. The data were extracted from raw images using […] software (SuperArray, Bioscience Corp.). After background subtraction, the level of gene expression was determined as signal intensity units relative to total array intensity signal. Statistical significant altered genes (PR peptides vs. control) at P values <0.05 were analyzed by Student's t-test, 2-tailed distribution. The data were expressed as fold change PR peptides relative to controls (untreated cells kept in similar conditions).

[1] = HUVEC, text statement of reduction

Sequence	overall inhibitory effect on NF-κB pathway-related gene expression (in words)	AKT1 gene expression (HUVEC)	ATF2 gene expression (HUVEC)	CREB1 gene expression (HUVEC)	ELK3 gene expression (HUVEC)	JNK1 gene expression (HUVEC)	MEK4 gene expression (HUVEC)	MEKK1 gene expression (HUVEC)	MEKK2 gene expression (HUVEC)	NF-κB1 gene expression (HUVEC)	NF-κB2 gene expression (HUVEC)	P38 MAPK gene expression (HUVEC)	RANK gene expression (HUVEC) [fold change]	RIP gene expression (HUVEC)	TAK1 gene expression (HUVEC)	TBK1 gene expression (HUVEC)	TRAF6 gene expression (HUVEC)	number of significantly reduced genes (HUVEC)	also measured
AAAPRPPYLPR [AAA, reference compound]	completely abolished PR11 activity	0.9 fold change	−1.0 fold change	−1.0 fold change	1.0 fold change	−1.2 fold change	−1.0 fold change	−1.0 fold change	−1.0 fold change	−1.3 fold change	−1.0 fold change	−1.0 fold change	1.1	−1.0 fold change	−1.0 fold change	−1.0 fold change	−1.0 fold change	–	–
ARRPRPPELPR [Peptide A1E8]	–	–	–	–	–	–	–	–	–	–	–	–	–	–	–	–	–	3-5 genes	–
KRRRPPYLPR [Peptide K1]	higher than PR11	1.8* fold change	−3.7^# fold change	−5.9^# fold change	1.8^# fold change	−9.9* fold change	−14.8^# fold change	−8.8* fold change	−4.0* fold change	−3.8* fold change	−1.8* fold change	−4.0^# fold change	1.5	−41.5^# fold change	−23.0^# fold change	−8.1^# fold change	−6.6* fold change	–	MEK4 expression level reduced [1]: 15 fold; RIP expression level reduced [1]: 41 fold; TAK1 expression level reduced [1]: 23 fold; TBK1 expression level reduced [1]: 8 fold
RRRPRPPELPR [Peptide E8]	–	–	–	–	–	–	–	–	–	–	–	–	–	–	–	–	–	3-5 genes	–
RRRPRPPELPRW [Peptide E8W12]	–	–	–	–	–	–	–	–	–	–	–	–	–	–	–	–	–	3-5 genes	–
